{"source": "paper PMC3707052", "about": "(Alzheimer's Research & Therapy, 2013)", "format_in_all_cases": "in vivo", "key": {"gamma-secretase [1]": {"system": "gamma-secretase", "assay": "Single oral dose PK/PD in Sprague Dawley rats (brain Aβ, compound exposure)", "conditions": "24 hrs post dose; for %Aβ40 lowering / %Aβ38 lowering / %Aβ42 lowering: rat brain, vs vehicle; for Brain exposure / Plasma exposure: rat", "protocol": "(§1) Female transgenic mice (Tg2576, 3 months of age; n = 20), wild-type male CD-1 mice (six weeks of age; n = 8 to 12) or wild-type male Sprague Dawley rats (200 to 225 g body weight; n = 12) were utilized to assess in vivo efficacy.\n(§2) For wild-type rat and mouse studies, all animals were acclimated to the test facility for a minimum of two days prior to initiation of the study. Compounds were dosed orally in 10:20:70 ethanol/solutol/water or 10:20:70 ethanol/cremaphor/water via oral gavage. Samples were harvested at either at 6 or 24 hrs post dose for Aβ and compound exposure measurements. Blood samples were collected into K2ethylenediaminetetraacetic acid (EDTA) and stored on wet ice until processed to plasma by centrifugation (3,500 rpm at 5°C) within 30 minutes of collection. Each brain was dissected into three parts: left and right hemispheres and cerebellum. Brain tissues were rinsed with ice cold PBS (without Mg^2+ or Ca^2+), blotted dry and weighed. Plasma and cerebella were analyzed for parent drug via liquid chromatography/tandem mass spectrometry (LC/MS/MS). Parent drug levels were compared to a standard curve to establish the plasma and brain levels.\n(§3) This protocol is a modification of protocols described by Lanz and Schachter and Rogers et al.. Frozen hemispheres were weighed into tared homogenization tubes (MP Biomedicals#6933050 for rat; MP Biomedicals, Solon, OH, USA) and (Simport#T501-4AT; Simport, Beloeil, Qc, Canada) containing one 5-mm stainless steel bead (Qiagen#69989 for mouse). For every gram of brain, 10 mLs of either 6 M guanidine hydrochloride (wild-type rat and mouse) or 0.2% diethyl amine in 50 mM NaCl (transgenic mouse) was added to the brain-containing tubes on wet ice. Rat hemispheres were homogenized for one minute and mouse hemispheres were homogenized for 30 seconds at the 6.5 setting using the FastPrep-24 Tissue and Cell homogenizer (MP Biomedicals#116004500). Homogenates were rocked for 2 hrs at 4°C, then pre-cleared by ultracentrifugation at 100,000 × g for one hour at 4°C. Pre-cleared wild-type rat and mouse homogenates were concentrated over solid phase extraction (SPE) columns (Oasis HLB 96-well SPE plate 30 μm, Waters#WAT058951; Waters Corp., Milford, MA, USA). Briefly, SPE columns were prepared by wetting with 1 mL of 100% methanol followed by dH20 using vacuum to pull liquids through. Brain homogenates were then added to the prepared columns (1.0 mL from rat and 0.7 mL from wild-type mouse). Columns were washed twice with 1 mL of 10% methanol followed by two 1 mL washes with 30% methanol. Labeled eluent collection tubes (Costar cluster tubes #4413; Corning Inc., Corning, NY, USA) were placed under SPE columns and samples were eluted under very mild vacuum with 300 μL of 2% NH4OH/90% methanol. Eluents were dried to films under vacuum with no heat in a speed vacuum microcentrifuge. Films were resuspended in 150 μL of Meso Scale Discovery (MSD, Gaithersburg, MD, USA) blocking buffer (1% BSA in MSD wash buffer) for one hour at room temperature with occasional vortexing. Transgenic mouse plasma (50 μL) was extracted in 500 μL of 6 M guanidine hydrochloride briefly at room temperature and then 450 μL was concentrated over SPE columns and dried to films as described above. Transgenic plasma films were resuspended in 225 μL of MSD blocking buffer. Pre-cleared transgenic mouse brain homogenates were diluted and neutralized as follows. A volume of 45 μL of pre-cleared transgenic mouse brain homogenates were diluted into 450 μL of blocking buffer and were neutralized with 5 μL of 0.5 M Tris pH 6.8. For Aβ38, Aβ40 and Aβ42 measurements, MSD 96-well multi-spot Human/Rodent (4G8) Aβ triplex ultra-sensitive ELISA plates, which are pre-spotted with three separate spots in each well containing capture antibodies against the unique C-terminal ends of Aβ38, Aβ40 and Aβ42, respectively, were blocked with MSD blocking buffer for one hour at room temperature with orbital shaking. […]"}, "gamma-secretase [2]": {"system": "gamma-secretase", "assay": "Six-day once-a-day oral dosing PK/PD in Sprague Dawley rats", "conditions": "24 hrs post final dose; for %Aβ40 lowering / %Aβ38 lowering / %Aβ42 lowering: rat brain, vs vehicle; for Brain exposure / Plasma exposure: rat", "protocol": "as §1, §2, §3"}, "gamma-secretase [3]": {"system": "gamma-secretase", "assay": "Six-day BID oral dosing PK/PD in wild-type CD-1 mice", "conditions": "for %Aβ38 lowering / %Aβ40 lowering / %Aβ42 lowering: CD-1 mouse brain, 6 hrs, vs vehicle; for Brain exposure / Plasma exposure: 6 hrs post final dose", "protocol": "as §1, §2, §3"}, "gamma-secretase [4]": {"system": "gamma-secretase", "assay": "Six-day once-a-day oral dosing PK/PD in Tg2576 mice (brain, plasma, CSF Aβ)"}, "[5]": {"conditions": "single oral dose 10 mg/kg, 10 mg/kg"}, "[6]": {"conditions": "single oral dose 30 mg/kg, 30 mg/kg"}, "[7]": {"conditions": "single oral dose 100 mg/kg, 100 mg/kg"}, "[8]": {"conditions": "10 mg/kg oral QD six days, 10 mg/kg"}, "[9]": {"conditions": "60 mg/kg oral QD six days, 60 mg/kg"}, "[10]": {"conditions": "30 mg/kg oral BID six days, 30 mg/kg"}, "[11]": {"conditions": "50 mg/kg oral BID six days, 50 mg/kg"}, "[12]": {"conditions": "CD-1 mouse, 15 mg/kg oral BID six days, 15 mg/kg"}, "[13]": {"conditions": "CD-1 mouse, 30 mg/kg oral BID six days, 30 mg/kg"}, "[14]": {"conditions": "CD-1 mouse, 50 mg/kg oral BID six days, 50 mg/kg"}, "[15]": {"conditions": "CD-1 mouse, BID six days, extrapolated from best-fit line, total"}, "[16]": {"conditions": "Tg2576 mouse CSF, 10 mg/kg oral QD six days, 24 hrs, vs vehicle"}}, "note": "Several values for one entry are separate records, joined by “and”; a condition that tells them apart may be missing. Identical values can stand only once."}
{"molecule": "CCO[C@@H]([C@H]1C[C@@H](C)[C@H]2[C@@H](O1)[C@H](O)[C@@]1(C)[C@@H]3CC[C@H]4C(C)(C)[C@@H](O[C@H]5CN(C6CN(C(C)C)C6)CCO5)CC[C@@]45C[C@@]35CC[C@]21C)C(C)(C)O", "note": "[SPI-1865]", "values": [{"measurement": "%Aβ40 lowering", "setting": "gamma-secretase [1]; single oral dose 10 mg/kg", "result": "1 ± 5", "unit": "%"}, {"measurement": "%Aβ38 lowering", "setting": "gamma-secretase [1]; [5]", "result": "26 ± 5", "unit": "%"}, {"measurement": "%Aβ42 lowering", "setting": "gamma-secretase [1]; [5]", "result": "21 ± 6", "unit": "%"}, {"measurement": "%Aβ38 lowering", "setting": "gamma-secretase [1]; [6]", "result": "36 ± 3", "unit": "%"}, {"measurement": "%Aβ40 lowering", "setting": "gamma-secretase [1]; [6]", "result": "14 ± 4", "unit": "%"}, {"measurement": "%Aβ42 lowering", "setting": "gamma-secretase [1]; [6]", "result": "37 ± 5", "unit": "%"}, {"measurement": "%Aβ38 lowering", "setting": "gamma-secretase [1]; [7]", "result": "47% and 47 ± 5 %"}, {"measurement": "%Aβ40 lowering", "setting": "gamma-secretase [1]; [7]", "result": "22 ± 5", "unit": "%"}, {"measurement": "%Aβ42 lowering", "setting": "gamma-secretase [1]; [7]", "result": "50 ± 5", "unit": "%"}, {"measurement": "Brain exposure", "setting": "gamma-secretase [1]; single oral dose 10 mg/kg", "result": "2.8 ± 0.3", "unit": "µM"}, {"measurement": "Plasma exposure", "setting": "gamma-secretase [1]; single oral dose 10 mg/kg", "result": "3.3 ± 0.1", "unit": "µM"}, {"measurement": "Brain exposure", "setting": "gamma-secretase [1]; single oral dose 30 mg/kg", "result": "11 ± 1", "unit": "µM"}, {"measurement": "Plasma exposure", "setting": "gamma-secretase [1]; single oral dose 30 mg/kg", "result": "8.5 ± 0.3", "unit": "µM"}, {"measurement": "Brain exposure", "setting": "gamma-secretase [1]; single oral dose 100 mg/kg", "result": "33 ± 2", "unit": "µM"}, {"measurement": "Plasma exposure", "setting": "gamma-secretase [1]; single oral dose 100 mg/kg", "result": "14 ± 1", "unit": "µM"}, {"measurement": "%Aβ40 lowering", "setting": "gamma-secretase [2]; 10 mg/kg oral QD six days", "result": "1 ± 2", "unit": "%"}, {"measurement": "%Aβ38 lowering", "setting": "gamma-secretase [2]; [8]", "result": "~25% and 27 ± 3 %"}, {"measurement": "%Aβ42 lowering", "setting": "gamma-secretase [2]; [8]", "result": "~25% and 24 ± 2 %"}, {"measurement": "%Aβ40 lowering", "setting": "gamma-secretase [2]; 30 mg/kg oral QD six days", "result": "8 ± 3", "unit": "%"}, {"measurement": "%Aβ38 lowering", "setting": "gamma-secretase [2]; [9]", "result": "61 ± 2", "unit": "%"}, {"measurement": "%Aβ40 lowering", "setting": "gamma-secretase [2]; [9]", "result": "26 ± 2", "unit": "%"}, {"measurement": "%Aβ42 lowering", "setting": "gamma-secretase [2]; [9]", "result": "66 ± 1", "unit": "%"}, {"measurement": "Brain exposure", "setting": "gamma-secretase [2]; 10 mg/kg oral QD six days", "result": "4.4 ± 0.2", "unit": "µM"}, {"measurement": "Plasma exposure", "setting": "gamma-secretase [2]; 10 mg/kg oral QD six days", "result": "8.0 ± 0.4", "unit": "µM"}, {"measurement": "Brain exposure", "setting": "gamma-secretase [2]; 30 mg/kg oral QD six days", "result": "16 ± 1", "unit": "µM"}, {"measurement": "Plasma exposure", "setting": "gamma-secretase [2]; 30 mg/kg oral QD six days", "result": "13 ± 1", "unit": "µM"}, {"measurement": "Plasma exposure", "setting": "gamma-secretase [2]; 60 mg/kg oral QD six days", "result": "19 ± 1", "unit": "µM"}, {"measurement": "%Aβ38 lowering", "setting": "gamma-secretase [3]; 15 mg/kg oral BID six days", "result": "13 ± 4", "unit": "%"}, {"measurement": "%Aβ40 lowering", "setting": "gamma-secretase [3]; 15 mg/kg oral BID six days", "result": "3 ± 2", "unit": "%"}, {"measurement": "%Aβ42 lowering", "setting": "gamma-secretase [3]; 15 mg/kg oral BID six days, 15 mg/kg", "result": "22% and 22 ± 4%"}, {"measurement": "%Aβ38 lowering", "setting": "gamma-secretase [3]; [10]", "result": "30 ± 3", "unit": "%"}, {"measurement": "%Aβ40 lowering", "setting": "gamma-secretase [3]; [10]", "result": "11% and 11 ± 2 %"}, {"measurement": "%Aβ42 lowering", "setting": "gamma-secretase [3]; [10]", "result": "39 ± 2% and 39% and 39 ± 3%"}, {"measurement": "%Aβ40 lowering", "setting": "gamma-secretase [3]; 50 mg/kg oral BID six days", "result": "9 ± 2", "unit": "%"}, {"measurement": "%Aβ38 lowering", "setting": "gamma-secretase [3]; [11]", "result": "28 ± 2", "unit": "%"}, {"measurement": "%Aβ42 lowering", "setting": "gamma-secretase [3]; [11]", "result": "47 ± 2% and 47%"}, {"measurement": "plasma free-fraction", "setting": "gamma-secretase [3]; CD-1 mouse, 15 mg/kg BID (low dose), calculated", "result": 82, "unit": "nM"}, {"measurement": "Brain exposure", "setting": "gamma-secretase [3]; [12]", "result": "3.6 ± 0.1", "unit": "µM"}, {"measurement": "Plasma exposure", "setting": "gamma-secretase [3]; [12]", "result": "3.4 ± 0.2", "unit": "µM"}, {"measurement": "plasma free-fraction", "setting": "gamma-secretase [3]; CD-1 mouse, 30 mg/kg BID, calculated", "result": 105, "unit": "nM"}, {"measurement": "Brain exposure", "setting": "gamma-secretase [3]; [13]", "result": "8.7 ± 1 µM and 8.7 ± 1.0 µM"}, {"measurement": "Plasma exposure", "setting": "gamma-secretase [3]; [13]", "result": "4.4 ± 0.3", "unit": "µM"}, {"measurement": "plasma free-fraction", "setting": "gamma-secretase [3]; CD-1 mouse, 50 mg/kg BID, calculated", "result": 182, "unit": "nM"}, {"measurement": "Brain exposure", "setting": "gamma-secretase [3]; [14]", "result": "22 ± 1", "unit": "µM"}, {"measurement": "Plasma exposure", "setting": "gamma-secretase [3]; [14]", "result": "7.6 ± 0.3", "unit": "µM"}, {"measurement": "ED50 (brain exposure for 50% brain Aβ42 lowering)", "setting": "gamma-secretase [3]; [15]", "result": 25.2, "unit": "µM"}, {"measurement": "ED50 (plasma exposure for 50% brain Aβ42 lowering)", "setting": "gamma-secretase [3]; [15]", "result": 5.9, "unit": "µM"}, {"measurement": "brain exposure for 25% brain Aβ42 lowering", "setting": "gamma-secretase [3]; [15]", "result": 3.8, "unit": "µM"}, {"measurement": "plasma exposure for 25% brain Aβ42 lowering", "setting": "gamma-secretase [3]; [15]", "result": 2.3, "unit": "µM"}, {"measurement": "brain free-fraction level", "setting": "gamma-secretase [3]; CD-1 mouse, highest dose (50 mg/kg BID), calculated", "result": "22 ± 1", "unit": "nM"}, {"measurement": "blood-brain barrier crossing", "setting": "gamma-secretase [4]; Tg2576 mice, levels measured in brain", "result": "readily crosses the blood-brain barrier"}, {"measurement": "%Aβ38 lowering", "setting": "gamma-secretase [4]; [16]", "result": "-2 ± 9", "unit": "%"}, {"measurement": "%Aβ40 lowering", "setting": "gamma-secretase [4]; [16]", "result": "-3 ± 9", "unit": "%"}]}
